Experimental data published in paper PMC10353892.
No constants are given. Whether binding was seen depends on the method and setting. Binding seen in cells or lysates may run through a third protein. Some results given as binding are weak or reduced against the parent protein; the word gives no strength. Tags and fused reporters may be left off the sequences shown.

T1: GFP-Ote 1–400 (Drosophila) (UniProt P20240)
T1 sequence: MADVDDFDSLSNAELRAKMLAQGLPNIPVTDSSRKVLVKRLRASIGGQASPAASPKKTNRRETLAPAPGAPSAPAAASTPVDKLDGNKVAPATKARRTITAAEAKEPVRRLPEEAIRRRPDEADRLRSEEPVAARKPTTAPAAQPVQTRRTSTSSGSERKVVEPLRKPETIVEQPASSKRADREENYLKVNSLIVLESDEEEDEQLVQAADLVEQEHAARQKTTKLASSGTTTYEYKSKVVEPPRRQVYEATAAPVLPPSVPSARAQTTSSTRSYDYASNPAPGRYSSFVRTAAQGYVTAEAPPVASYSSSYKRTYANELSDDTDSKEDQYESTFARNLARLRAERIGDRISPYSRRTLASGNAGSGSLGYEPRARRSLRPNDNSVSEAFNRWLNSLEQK

T2: GFP-Ote 1–70 (Drosophila) (UniProt P20240)
T2 sequence: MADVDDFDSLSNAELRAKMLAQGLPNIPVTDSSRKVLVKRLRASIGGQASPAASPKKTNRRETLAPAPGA

T3: Myc-BAF (Drosophila) (UniProt Q9VLU0)
T3 sequence: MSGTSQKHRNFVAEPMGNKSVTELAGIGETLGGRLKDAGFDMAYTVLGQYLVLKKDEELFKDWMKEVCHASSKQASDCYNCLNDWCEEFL

T4: GFP-Ote 42–400 (Drosophila) (UniProt P20240)
T4 sequence: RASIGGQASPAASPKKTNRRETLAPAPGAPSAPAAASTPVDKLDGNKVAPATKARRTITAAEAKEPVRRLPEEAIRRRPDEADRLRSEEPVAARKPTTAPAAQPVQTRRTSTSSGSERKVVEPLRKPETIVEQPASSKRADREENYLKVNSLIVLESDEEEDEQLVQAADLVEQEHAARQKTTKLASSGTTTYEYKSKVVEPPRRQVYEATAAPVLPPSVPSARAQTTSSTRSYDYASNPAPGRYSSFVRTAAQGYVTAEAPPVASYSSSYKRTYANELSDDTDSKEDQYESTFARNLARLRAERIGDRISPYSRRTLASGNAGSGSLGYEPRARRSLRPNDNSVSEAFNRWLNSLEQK

T5: GFP-Ote^WT (D-Mel cells) (Drosophila) (UniProt P20240)
T5 sequence: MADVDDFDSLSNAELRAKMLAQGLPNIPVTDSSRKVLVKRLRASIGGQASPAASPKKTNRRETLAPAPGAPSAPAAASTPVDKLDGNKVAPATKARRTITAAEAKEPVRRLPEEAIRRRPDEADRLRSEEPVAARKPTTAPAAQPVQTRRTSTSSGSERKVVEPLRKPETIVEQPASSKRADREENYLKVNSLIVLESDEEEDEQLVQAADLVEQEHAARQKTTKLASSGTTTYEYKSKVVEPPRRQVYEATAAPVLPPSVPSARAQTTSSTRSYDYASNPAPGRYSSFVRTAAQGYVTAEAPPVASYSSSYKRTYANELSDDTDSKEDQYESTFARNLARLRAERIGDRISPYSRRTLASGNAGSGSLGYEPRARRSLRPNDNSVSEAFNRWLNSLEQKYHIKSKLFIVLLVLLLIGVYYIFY

T6: GFP-Ote 42–400 with the phosphomimetic mutations (Drosophila) (UniProt P20240)
T6 sequence: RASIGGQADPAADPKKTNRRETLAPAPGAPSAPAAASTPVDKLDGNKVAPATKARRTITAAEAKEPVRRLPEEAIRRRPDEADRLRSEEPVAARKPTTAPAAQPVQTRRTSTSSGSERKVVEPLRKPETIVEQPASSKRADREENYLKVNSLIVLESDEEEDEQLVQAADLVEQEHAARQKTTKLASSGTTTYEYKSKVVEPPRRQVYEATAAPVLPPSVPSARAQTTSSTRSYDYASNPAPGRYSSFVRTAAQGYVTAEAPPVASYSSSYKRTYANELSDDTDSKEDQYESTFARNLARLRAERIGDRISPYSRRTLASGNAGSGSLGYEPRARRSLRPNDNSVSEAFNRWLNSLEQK


Tests used:
[1] = molecular target: T1, GFP-Ote 1–400 (Drosophila); assay: co-IP; GFP-Trap agarose on lysates of transfected D-Mel cells; 20 mM Tris-HCl pH 7.5, 150 mM NaCl, 2 mM MgCl2, 0.5% NP40 Substitute, 4°C; Western blot
[2] = molecular target: T2, GFP-Ote 1–70 (Drosophila); assay: as above
[3] = molecular target: T3, Myc-BAF (Drosophila); assay: co-IP; as a2, after RNAi silencing of Tws
[4] = molecular target: T3, Myc-BAF (Drosophila); assay: co-IP; anti-Myc 9E10 and Protein G Dynabeads on lysates of transfected D-Mel cells; 50 mM Tris-HCl pH 7.5, 150 mM NaCl, 0.2% Triton X-100, 4°C; Western blot
[5] = molecular target: T4, GFP-Ote 42–400 (Drosophila); assay: co-IP; GFP-Trap agarose on lysates of transfected D-Mel cells; 20 mM Tris-HCl pH 7.5, 150 mM NaCl, 2 mM MgCl2, 0.5% NP40 Substitute, 4°C; Western blot
[6] = molecular target: T5, GFP-Ote^WT (D-Mel cells) (Drosophila); assay: as above
[7] = molecular target: T6, GFP-Ote 42–400 with the phosphomimetic mutations (Drosophila); assay: as above

binding [1] | binding [2] | binding [4] | binding [5] | binding [6] | binding [7] | Binder | binding [3]
binds | binds | – | – | – | – | Myc-BAF (protein, UniProt Q9VLU0 1-90) MSGTSQKHRNFVAEPMGNKSVTELAGIGETLGGRLKDAGFDMAYTVLGQYLVLKKDEELFKDWMKEVCHASSKQASDCYNCLNDWCEEFL | –
– | – | binds | – | – | – | GFP-Ote^WT (D-Mel cells) (protein, UniProt P20240 1-424) MADVDDFDSLSNAELRAKMLAQGLPNIPVTDSSRKVLVKRLRASIGGQASPAASPKKTNRRETLAPAPGAPSAPAAASTPVDKLDGNKVAPATKARRTITAAEAKEPVRRLPEEAIRRRPDEADRLRSEEPVAARKPTTAPAAQPVQTRRTSTSSGSERKVVEPLRKPETIVEQPASSKRADREENYLKVNSLIVLESDEEEDEQLVQAADLVEQEHAARQKTTKLASSGTTTYEYKSKVVEPPRRQVYEATAAPVLPPSVPSARAQTTSSTRSYDYASNPAPGRYSSFVRTAAQGYVTAEAPPVASYSSSYKRTYANELSDDTDSKEDQYESTFARNLARLRAERIGDRISPYSRRTLASGNAGSGSLGYEPRARRSLRPNDNSVSEAFNRWLNSLEQKYHIKSKLFIVLLVLLLIGVYYIFY | no binding (condition: after RNAi silencing of Tws)
binds | binds | – | binds | binds | binds | Myc-Ote (protein, UniProt P20240 1-424) MADVDDFDSLSNAELRAKMLAQGLPNIPVTDSSRKVLVKRLRASIGGQASPAASPKKTNRRETLAPAPGAPSAPAAASTPVDKLDGNKVAPATKARRTITAAEAKEPVRRLPEEAIRRRPDEADRLRSEEPVAARKPTTAPAAQPVQTRRTSTSSGSERKVVEPLRKPETIVEQPASSKRADREENYLKVNSLIVLESDEEEDEQLVQAADLVEQEHAARQKTTKLASSGTTTYEYKSKVVEPPRRQVYEATAAPVLPPSVPSARAQTTSSTRSYDYASNPAPGRYSSFVRTAAQGYVTAEAPPVASYSSSYKRTYANELSDDTDSKEDQYESTFARNLARLRAERIGDRISPYSRRTLASGNAGSGSLGYEPRARRSLRPNDNSVSEAFNRWLNSLEQKYHIKSKLFIVLLVLLLIGVYYIFY | –
– | – | binds | – | – | – | GFP-Ote^AA (D-Mel cells) (protein, UniProt P20240 1-424) MADVDDFDSLSNAELRAKMLAQGLPNIPVTDSSRKVLVKRLRASIGGQAAPAAAPKKTNRRETLAPAPGAPSAPAAASTPVDKLDGNKVAPATKARRTITAAEAKEPVRRLPEEAIRRRPDEADRLRSEEPVAARKPTTAPAAQPVQTRRTSTSSGSERKVVEPLRKPETIVEQPASSKRADREENYLKVNSLIVLESDEEEDEQLVQAADLVEQEHAARQKTTKLASSGTTTYEYKSKVVEPPRRQVYEATAAPVLPPSVPSARAQTTSSTRSYDYASNPAPGRYSSFVRTAAQGYVTAEAPPVASYSSSYKRTYANELSDDTDSKEDQYESTFARNLARLRAERIGDRISPYSRRTLASGNAGSGSLGYEPRARRSLRPNDNSVSEAFNRWLNSLEQKYHIKSKLFIVLLVLLLIGVYYIFY | no binding (condition: after RNAi silencing of Tws)
